US7705030B2, “Amino-5-(5-membered)hetero-arylimidazolone compounds and the use thereof for β-secretase modulation” (Wyeth LLC, priority 2005, dated 2010)
Structures were worked out from names or drawings and are uncertain.

Sequences of proteins named here, by UniProt entry; tags and fusion partners are left off. Residues count along the entry.
UniProt P56817, 46-501 limits assumed: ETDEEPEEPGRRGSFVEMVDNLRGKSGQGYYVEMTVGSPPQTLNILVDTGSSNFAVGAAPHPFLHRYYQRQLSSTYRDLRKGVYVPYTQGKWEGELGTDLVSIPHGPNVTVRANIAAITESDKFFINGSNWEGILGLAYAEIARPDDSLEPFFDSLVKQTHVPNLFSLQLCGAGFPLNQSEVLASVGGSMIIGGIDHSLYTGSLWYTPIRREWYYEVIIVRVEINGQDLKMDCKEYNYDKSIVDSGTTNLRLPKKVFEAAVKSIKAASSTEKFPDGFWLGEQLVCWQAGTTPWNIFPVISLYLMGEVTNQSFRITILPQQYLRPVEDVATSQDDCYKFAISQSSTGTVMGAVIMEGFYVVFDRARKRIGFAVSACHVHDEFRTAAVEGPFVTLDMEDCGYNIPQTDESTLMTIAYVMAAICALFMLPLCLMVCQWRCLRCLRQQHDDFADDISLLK

Biological target: human BACE1 (Homo sapiens, UniProt P56817)
Experiment: Fluorescent kinetic assay: Evaluation of BACE-1 Binding Affinity of Test Compounds
Conditions: read-out: BACE-1 IC50 μM; 10 nM enzyme, 25 μM substrate WABC-6, 50 mM Na-Acetate pH 4.5, room temperature

IC50	SMILES
> 1 µM	CCCCCn1cc(C2(c3ccc(OC(F)F)cc3)N=C(N)N(C)C2=O)cn1 (centres unmarked)
0.11 to 1 µM	CCC(=O)c1cc(C2(c3cccc(OCCF)c3)N=C(N)N(C)C2=O)cn1CC (centres unmarked)
